The test deals with T1, SET domain-containing protein 8 (SETD8), lysine methyltransferase 8 (human (endogenous in HGECs)) (UniProt Q9NQR1).
T1 sequence: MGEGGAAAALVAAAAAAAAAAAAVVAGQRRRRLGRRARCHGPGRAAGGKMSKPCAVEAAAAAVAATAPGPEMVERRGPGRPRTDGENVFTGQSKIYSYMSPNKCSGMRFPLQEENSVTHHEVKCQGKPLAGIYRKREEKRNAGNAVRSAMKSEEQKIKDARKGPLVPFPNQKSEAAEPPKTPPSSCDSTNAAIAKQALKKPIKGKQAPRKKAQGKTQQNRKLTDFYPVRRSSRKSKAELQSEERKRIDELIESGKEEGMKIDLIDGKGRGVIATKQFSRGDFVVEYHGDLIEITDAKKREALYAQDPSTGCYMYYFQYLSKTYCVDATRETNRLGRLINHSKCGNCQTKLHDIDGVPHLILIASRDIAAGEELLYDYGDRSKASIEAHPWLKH
The test can be described thus: co-IP; endogenous IP from HGEC lysate; primary antibodies and protein A/G Dynabeads, 4 °C overnight; input, IgG and IP fractions analysed by Western blot. On the technique in general: Immunoblotting shows a protein as a band on a membrane.

Sequences of proteins named here, by UniProt entry; tags and fusion partners are left off.
UniProt P28698: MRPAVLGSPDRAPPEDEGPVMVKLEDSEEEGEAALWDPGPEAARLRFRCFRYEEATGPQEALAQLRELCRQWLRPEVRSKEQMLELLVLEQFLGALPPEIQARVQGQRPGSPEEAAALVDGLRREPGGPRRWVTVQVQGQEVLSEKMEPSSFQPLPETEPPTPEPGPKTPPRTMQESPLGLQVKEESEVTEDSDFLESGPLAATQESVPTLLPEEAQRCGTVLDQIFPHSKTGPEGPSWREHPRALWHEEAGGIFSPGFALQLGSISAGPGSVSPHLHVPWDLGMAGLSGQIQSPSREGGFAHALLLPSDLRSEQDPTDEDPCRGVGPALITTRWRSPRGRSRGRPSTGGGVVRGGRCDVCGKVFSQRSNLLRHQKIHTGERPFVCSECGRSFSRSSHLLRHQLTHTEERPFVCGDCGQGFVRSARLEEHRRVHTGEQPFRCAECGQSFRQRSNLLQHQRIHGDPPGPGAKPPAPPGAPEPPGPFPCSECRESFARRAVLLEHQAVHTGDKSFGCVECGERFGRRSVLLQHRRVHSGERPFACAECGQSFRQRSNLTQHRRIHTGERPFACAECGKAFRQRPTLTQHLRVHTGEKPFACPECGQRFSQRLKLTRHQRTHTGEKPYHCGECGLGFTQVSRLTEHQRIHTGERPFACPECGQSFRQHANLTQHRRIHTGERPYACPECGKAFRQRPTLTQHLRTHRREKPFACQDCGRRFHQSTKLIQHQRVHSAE

These are yes or no findings as the source states them, for the method shown. Binding seen in cells or lysates may run through a third protein. Some results given as binding are weak or reduced against the parent protein; the word gives no strength.

Take “Myeloid zinc finger 1 (MZF1) (from UniProt P28698 1-734)”: the binding result is recorded as “binds”.

Source of the values: paper PMC8962284.
